Key:
[1] = Concentration in indoor air after residual spraying of aerosol (Examples 1 to 4); details: for mean annual concentration in the air including 8-week spraying period / mean concentration in the air during the spraying period / maximum concentration in the air immediately after spraying / CONCENTRATION IN AIR 25 [cm] / CONCENTRATION IN AIR 120 [cm]: Example 1; for mean concentration in the air during the spraying period: 8-week spraying period; for maximum concentration in the air immediately after spraying: average at heights of 25 cm and 120 cm from center of floor; for CONCENTRATION IN AIR 25 [cm] / CONCENTRATION IN AIR 120 [cm]: mean
[2] = Residual amount at floor, wall and ceiling after residual spraying (Example 1); details: for RESIDUAL AMOUNT FLOOR / RESIDUAL AMOUNT WALL: mean
[3] = Example 4, air-conditioner used
[4] = window closed state, air-conditioner not used
[5] = SPRAYING PERIOD, mean of inflow, discharge and lateral sides

| Compound | mean annual concentration in the air including 8-week spraying period [1] [μg/m^3] | mean concentration in the air during the spraying period [1] [μg/m^3] | maximum concentration in the air immediately after spraying [1] [μg/m^3] | CONCENTRATION IN AIR 25 [cm] ([1]; ANNUAL) [μg/m^3] | CONCENTRATION IN AIR 120 [cm] ([1]; ANNUAL) [μg/m^3] | CONCENTRATION IN AIR 25 [cm] ([1]; SPRAYING PERIOD) [μg/m^3] | CONCENTRATION IN AIR 120 [cm] ([1]; SPRAYING PERIOD) [μg/m^3] | mean concentration in the air [1, 3] [μg/m^3] | mean concentration in the air [1, 4] [μg/m^3] | residual amount at the wall on the discharge side [2] [μg/m^2] | residual amount at the wall on the inflow side [2] [μg/m^2] | residual amount at the wall on the lateral side [2] [μg/m^2] | RESIDUAL AMOUNT FLOOR ([2]; ANNUAL) [μg/m^2] | RESIDUAL AMOUNT WALL ([2]; ANNUAL) [μg/m^2] | RESIDUAL AMOUNT FLOOR ([2]; SPRAYING PERIOD) [μg/m^2] | RESIDUAL AMOUNT WALL [2, 5] [μg/m^2] | mean concentration in the air ([1]; Example 3, window opened for 5 minutes) [μg/m^3] | mean concentration in the air ([1]; Example 3, window opened for 2 hours) [μg/m^3] |
| --- | --- | --- | --- | --- | --- | --- | --- | --- | --- | --- | --- | --- | --- | --- | --- | --- | --- | --- |
| CC(C)=CC1[C@@H](C(=O)OCN2C(=O)C3=C(CCCC3)C2=O)C1(C)C (stereo in doubt) [d-tetramethrin] | 0.53 | 3.25 | 1040 | 0.54 | 0.52 | 3.31 | 3.19 | 15.5 | 20.2 | 58 | 35 | 43 | 400 | 15 | 2500 | 43 | – | – |
| CC(C)=CC1[C@@H](C(=O)OCc2cccc(Oc3ccccc3)c2)C1(C)C (stereo in doubt) [d-phenothrin] | 0.43 | 2.35 | 752 | 0.41 | 0.45 | 2.35 | 2.35 | 11.6 | 14.8 | 45 | 28 | 33 | 360 | 7 | 2200 | 33 | 2.88 | 1.19 |
